For 60 molecules, cell number change and AC50 results are on record in PubChem BioAssay AID2685 (National Center for Advancing Translational Sciences (NCATS), 2010).

As usually defined, the AC50 is the concentration giving half of the maximal activity seen. Read a low AC50 as greater potency.

This test can be described thus: qHTS Assay for Lipid Storage Modulators in Drosophila S3 Cells.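 As to cell number change: cells counted by Cell Tracker Red CMTPX staining in the red channel.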 The settings on record: BODIPY lipid droplet fluorescence, 18-24 h; for cell number change: measured here: cell count max response, cells fed with added oleic acid. In outline:
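Drosophila S3 cells loaded with oleic acid (400 uM, as added) and compounds at several concentrations; lipid droplets imaged by 488-nm laser-scanning cytometry, 500–530 nm intensity and object ratio to cell channel. Percent activity normalized to 20 uM Triacsin C.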
(In general: qHTS replaces the single test concentration by a dilution series.)

Setting [1] is: measured here: cell number channel AC50, cells fed with added oleic acid.
The mark [2] stands for this setting: measured here: lipid fluorescence (Fed channel) AC50, cells fed with added oleic acid.

Some of the results follow. The main result of the screen is listed elsewhere. These columns were measured beside it and carry no call. Compounds called inactive in the main read-out are mostly missing here. Words in brackets tell the shape of the fitted curve; partial curves, single points and poor fits give uncertain potencies.

For `O=C(O)/C(=C/c1ccco1)c1ccccc1`, the cell number change is -58.1%. For the same molecule, the AC50 under setting [1] was 32.6 µM [falling, partial curve, poor fit]. Moreover, the AC50 under setting [2] was 29.1 µM [falling, partial curve, poor fit].
Consider `COc1cc(CNCCNC(=O)c2nonc2N)ccc1OCc1ccc(Cl)cc1`, for which the cell number change is -20.7%. Also, the AC50 under setting [2] was 0.082 µM [falling, full curve, poor fit].
Turning to `CCn1cc(NC(=O)Nc2ccccc2C(=O)OC)c(C(N)=O)n1`, the cell number change is -19.8%. Further, the AC50 under setting [1] is 0.116 µM [falling, full curve, poor fit]. In addition, the AC50 under setting [2] was 29.1 µM [falling, single point].
As to `COc1cc(S(=O)(=O)N2CCN=C2c2ccccc2)ccc1Cl`, the cell number change is 0.771%. The AC50 under setting [2] was 14.6 µM [falling, partial curve, poor fit].
As for `COCCN(CC(=O)Nc1cccc(S(=O)(=O)N2CCCC2)c1)Cc1nc2ccccc2c(=O)[nH]1`, under setting [1], the AC50 is 0.58 µM [rising, single point].
With `CCOC(=O)C(=O)N1CCN(c2nc(-c3ccc(Cl)cc3)cs2)CC1`, the cell number change is -5.28%.
With `CCN(C(=O)COC(=O)C1CC1)c1c(N)n(Cc2ccccc2)c(=O)[nH]c1=O`, the cell number change worked out at 10.2%. The AC50 under setting [2] is 7.31 µM [rising, partial curve].
Consider `CNc1nc(Nc2ccc(Br)cc2)nc(N)c1[N+](=O)[O-]`, for which the cell number change was -36.3%. Under setting [1], the AC50 is 29.1 µM [falling, single point]. Further, under setting [2], the AC50 is 23.1 µM [falling, single point].
Turning to `CCCC[C@H]1COCCS(=O)(=O)N1Cc1ccc(C)cc1`, the cell number change is 22.5%.
On to `COc1ccc(CNC(=O)C(OC(C)=O)c2ccccn2)cc1` (stereo unspecified), for which, under setting [1], the AC50 is 0.164 µM [falling, full curve, poor fit].
Take `CC(=O)c1cccc(NC(=O)Cn2cnc(S(=O)(=O)N3CCCCC3)c2)c1`: the cell number change is 21.8%.
For the molecule `CCCC[C@@H]1CNC(=O)C(=O)N1CC(C)(C)C`, the cell number change amounted to 9.43%. The AC50 under setting [2] is 7.31 µM [rising, partial curve, poor fit].
For `Cc1ccc(C2=NOC(=O)/C2=C\C=C\c2ccccc2)cc1`, the AC50 under setting [2] was 4.11 µM [falling, full curve].
As for `Cc1cnc(C(=O)OCC(=O)Nc2ccc(Br)cc2F)cn1`, the cell number change is -10.3%. Also, the AC50 under setting [2] is 29.1 µM [rising, single point].
On to `N#Cc1nc(-c2ccco2)oc1NCCN1CCOCC1`, for which the cell number change stood at 4.7%.
On to `CC(C)N(C(=O)c1sc2cc([N+](=O)[O-])ccc2c1Cl)C(C)C`, for which the AC50 under setting [2] was 0.13 µM [rising, full curve, poor fit].
In the case of `CCc1ccc(N2CC(C(=O)N/N=C/c3ccccc3OC)CC2=O)cc1` (stereo unspecified), the cell number change turned out to be 13.9%.
For `O=C(CCCC(=O)N(CC(=O)NC1CCCCC1)c1cccc(F)c1)Nc1ccccn1`, the cell number change was -6.58%. Further, the AC50 under setting [2] was 0.1 µM [falling, partial curve, poor fit].
For the molecule `CCOc1ccc(S(=O)(=O)N2CCC(C(=O)NCCc3ccc(S(N)(=O)=O)cc3)CC2)cc1`, the cell number change turned out to be 25.5%. In addition, the AC50 under setting [2] was 18.4 µM [rising, single point].
For `O=C(O)C1C2C=CC(C2)C1C(=O)Nc1cccc(C(=O)N2CCCCC2)c1` (stereo unspecified), the cell number change turned out to be 34.4%. Moreover, the AC50 under setting [2] is 29.1 µM [rising, single point].
As to `Cc1ccc(S(=O)(=O)N(CC(=O)NCCSc2ccccn2)c2ccccc2F)cc1`, the cell number change stood at 7.92%. Under setting [2], the AC50 was 1.16 µM [falling, single point].
With `O=C(Cn1nnc(-c2ccc(F)cc2)n1)Nc1ccc2c(c1)OCCO2`, the cell number change was -19.3%. For the same molecule, the AC50 under setting [1] was 0.00517 µM [falling, full curve, poor fit]. Also, under setting [2], the AC50 is 0.82 µM [falling, full curve, poor fit].
As for `C/C(=N\Nc1ccc(F)cc1F)c1cccs1`, the cell number change is -15.8%.
Turning to `CC(OC(=O)CNC(=O)C12CC3CC(CC(C3)C1)C2)C(=O)Nc1ccc(S(N)(=O)=O)cc1` (stereo unspecified), the cell number change is -44.6%. Besides, the AC50 under setting [1] was 0.326 µM [falling, partial curve]. The AC50 under setting [2] is 0.0146 µM [falling, full curve].
In the case of `CC(CCc1ccco1)NC(=O)CCc1nnc2ccc(NCc3ccccc3Cl)nn12` (stereo unspecified), the cell number change was -43.6%. For the same molecule, under setting [1], the AC50 is 0.0164 µM [falling, full curve, poor fit]. Besides, the AC50 under setting [2] was 29.1 µM [falling, single point].
For `O=C(CCC(=O)OCc1ccc(Br)cc1)Nc1ccccc1`, the AC50 is 0.58 µM [falling, single point] under setting [1] and 7.31 µM [falling, partial curve] under setting [2].
As for `CC(=O)C1C(c2ccccc2Cl)NC(=O)NC1(O)C(F)(F)F` (stereo unspecified), the cell number change amounted to 19.6%.
In the case of `Cc1nnc(C)c2c(C)n(Cc3ccc4c(c3)OCO4)c(C)c12`, the AC50 under setting [2] is 1.84 µM [rising, partial curve].
Regarding `CCN1C(=O)C(O)(CC(=O)c2ccccn2)c2ccccc21` (stereo unspecified), the cell number change was -23.3%. Also, under setting [1], the AC50 is 2.59 µM [falling, full curve, poor fit].
As to `C(=N\N1CCN(Cc2cccc3ccccc23)CC1)/c1cccnc1`, the cell number change is -22.5%. For the same molecule, under setting [2], the AC50 is 29.1 µM [falling, single point].
On to `NS(=O)(=O)c1ccc(CCNC(=O)c2ccc[nH]c2=S)cc1`, for which the cell number change was -4.5%. Also, under setting [2], the AC50 is 0.58 µM [rising, single point].
For the molecule `Cc1cccc(C(=O)Nc2nc3ccc(S(C)(=O)=O)cc3s2)c1`, the cell number change was 27%. Further, the AC50 under setting [2] was 25.9 µM [falling, single point].
Turning to `CCOC(=O)c1ccc(NC(=O)CCn2c(=O)oc3ccccc32)cc1`, the cell number change was -4.46%. The AC50 under setting [1] was 0.146 µM [rising, partial curve, poor fit]. The AC50 under setting [2] was 29.1 µM [falling, single point].
`O=C(COc1ccccc1)Nc1ccc(OC(F)(F)C(F)F)c(NC(=O)COc2ccccc2)c1`: the AC50 was 0.116 µM [rising, partial curve] under setting [1] and 8.2 µM [rising, partial curve, poor fit] under setting [2].
Turning to `Cc1nc2c3cc(F)ccc3n(Cc3ccccc3F)c2s1`, the cell number change was found to be 37%. The AC50 under setting [1] was 9.2 µM [rising, partial curve]. Also, under setting [2], the AC50 was 1.3 µM [rising, partial curve].
`CCN1C(=NCCc2cccs2)N[C@@H](CCc2ccccc2)[C@H](C(=O)NCCc2cccs2)[C@H]1C`: under setting [2], the AC50 is 29.1 µM [falling, single point].
Turning to `O=C(CN1C(=O)c2ccccc2C1=O)Nc1ccc(N2CCOCC2)cc1`, the cell number change is 17.3%.
`CCOC(=O)c1c(CSc2ccc(CC)cc2)oc2ccc(O)c(CN(C)C)c12`: the cell number change was -71%. For the same molecule, the AC50 under setting [1] is 20.6 µM [falling, partial curve]. Further, the AC50 under setting [2] was 13 µM [falling, partial curve].
For `Cc1ccc(S(=O)(=O)N(CC(=O)NCc2ccncc2)Cc2ccc(F)cc2)cc1`, the cell number change is 9.57%. Also, the AC50 under setting [2] was 6.51 µM [rising, single point].
Turning to `Cc1cc(C(=O)N/N=C2\CC(=O)c3ccccc32)c(C)n1-c1ccccc1`, the cell number change is -34.5%. Besides, under setting [1], the AC50 was 0.731 µM [falling, full curve]. In addition, the AC50 under setting [2] is 0.58 µM [falling, full curve].
With `COCCn1nnnc1C1(N(Cc2cc3cc(C)ccc3[nH]c2=O)CC2CCCO2)CCN(C)CC1` (stereo unspecified), the cell number change was -18.9%. The AC50 under setting [2] is 20.6 µM [rising, single point].
As to `COc1ccc(NC(=O)N2CCCc3ccccc32)cc1`, the cell number change was 33.5%. For the same molecule, under setting [1], the AC50 is 5.17 µM [rising, single point].
Take `S=C(NC1CCCCCC1)NC1CCCC1`: the cell number change was -29.3%. Further, the AC50 under setting [2] was 0.326 µM [falling, full curve, poor fit].
Take `Cc1ccccc1NCc1nnc2n1CCCCC2`: the cell number change is -77.8%.
Turning to `CCc1noc(C)c1C(=O)OCC(=O)NC(=O)c1ccccc1OC`, the cell number change was -7.21%. For the same molecule, the AC50 under setting [2] was 29.1 µM [falling, single point].
Regarding `COc1ccccc1N(CC(=O)Nc1ccccc1C(=O)NCC(C)C)S(C)(=O)=O`, the cell number change came out at 10.6%.
With `c1ccc(Cn2nnnc2C(c2cccs2)N2CCOCC2)cc1` (stereo unspecified), the cell number change is 29.1%. In addition, under setting [2], the concentration at half-maximal activity (AC50) is 7.31 µM [falling, partial curve, poor fit].
In the case of `CCN(CC)C(=O)N1CCN(c2c([N+](=O)[O-])c(=O)oc3ccccc23)CC1`, the cell number change is 11.9%. For the same molecule, the AC50 under setting [2] is 1.03 µM [rising, partial curve, poor fit].
For the molecule `Cc1nc(CNS(=O)(=O)c2cccnc2)cs1`, under setting [1], the AC50 was 0.00517 µM [rising, full curve, poor fit].
In the case of `Cc1cc(C)c2c(C)nn(-c3ccccc3)c2n1`, the concentration at half-maximal activity (AC50) was 2.06 µM [rising, partial curve] under setting [1] and 0.58 µM [rising, single point] under setting [2].
Regarding `COc1cccc(/C=N/NC(=O)CNC(=O)c2ccncc2)c1O`, the cell number change was -18.5%. Moreover, the AC50 under setting [2] is 6.51 µM [rising, single point].
Take `COc1cccc(CN(C)C(=O)c2ccccc2Sc2ccccc2C#N)c1`: the cell number change worked out at 5.95%. Also, under setting [2], the concentration at half-maximal activity (AC50) was 29.1 µM [rising, single point].
With `CCCc1cc(C(=O)Nc2cc(C)nn2-c2ccccc2)no1`, the cell number change stood at 13%. Under setting [2], the AC50 was 0.146 µM [falling, single point].
With `COc1ccc(S(=O)(=O)N2CCC(C(=O)NCCN3CCOCC3)CC2)cc1C`, the cell number change was 17.9%. In addition, under setting [2], the AC50 is 0.731 µM [rising, partial curve].
On to `CCCCn1c(SCC(=O)NCc2ccco2)nc2cc(S(N)(=O)=O)ccc21`, for which the cell number change turned out to be 33.6%. Under setting [1], the half-maximal activity concentration (AC50) was 1.03 µM [rising, full curve, poor fit].
In the case of `CCC(=O)N1CCN(CCN=CC2=C(O)CC(C)(C)CC2=O)CC1`, the cell number change was -27.6%.
Consider `COc1ccc(/C=C(\C#N)C(=O)N2CCOCC2)cc1Br`, for which the cell number change is 5.18%. In addition, under setting [1], the AC50 was 6.51 µM [falling, single point]. Besides, the AC50 under setting [2] was 6.51 µM [falling, single point].
For `O=S(=O)(c1cc(O)ccc1O)c1cccc2c(S(=O)(=O)c3cc(O)ccc3O)cccc12`, the cell number change is -17.8%.
As for `CCOc1ccc(C(=O)Nc2nnc(C)s2)cc1OCC`, the cell number change is -7.78%. The AC50 under setting [2] is 16.4 µM [rising, partial curve].
As for `CCN(CC)S(=O)(=O)c1cccc(-c2nnc(SCC(=O)NC)n2CCc2ccccc2)c1`, the cell number change was -1.77%.
